According to PMC1570494:
No constants are given. Whether binding was seen depends on the method and setting. For some assays here: Binding seen in cells or lysates may run through a third protein. Some results given as binding are weak or reduced against the parent protein; the word gives no strength.

Protein sequences, listed by entry. Tags and fused reporters are not part of them. Lines headed by an entry give the natural chain unless they say otherwise; changes in a name come on top. Residues count along the entry.
UniProt P04608: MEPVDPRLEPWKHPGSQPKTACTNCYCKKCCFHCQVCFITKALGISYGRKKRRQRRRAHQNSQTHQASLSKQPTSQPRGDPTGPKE
UniProt P51532: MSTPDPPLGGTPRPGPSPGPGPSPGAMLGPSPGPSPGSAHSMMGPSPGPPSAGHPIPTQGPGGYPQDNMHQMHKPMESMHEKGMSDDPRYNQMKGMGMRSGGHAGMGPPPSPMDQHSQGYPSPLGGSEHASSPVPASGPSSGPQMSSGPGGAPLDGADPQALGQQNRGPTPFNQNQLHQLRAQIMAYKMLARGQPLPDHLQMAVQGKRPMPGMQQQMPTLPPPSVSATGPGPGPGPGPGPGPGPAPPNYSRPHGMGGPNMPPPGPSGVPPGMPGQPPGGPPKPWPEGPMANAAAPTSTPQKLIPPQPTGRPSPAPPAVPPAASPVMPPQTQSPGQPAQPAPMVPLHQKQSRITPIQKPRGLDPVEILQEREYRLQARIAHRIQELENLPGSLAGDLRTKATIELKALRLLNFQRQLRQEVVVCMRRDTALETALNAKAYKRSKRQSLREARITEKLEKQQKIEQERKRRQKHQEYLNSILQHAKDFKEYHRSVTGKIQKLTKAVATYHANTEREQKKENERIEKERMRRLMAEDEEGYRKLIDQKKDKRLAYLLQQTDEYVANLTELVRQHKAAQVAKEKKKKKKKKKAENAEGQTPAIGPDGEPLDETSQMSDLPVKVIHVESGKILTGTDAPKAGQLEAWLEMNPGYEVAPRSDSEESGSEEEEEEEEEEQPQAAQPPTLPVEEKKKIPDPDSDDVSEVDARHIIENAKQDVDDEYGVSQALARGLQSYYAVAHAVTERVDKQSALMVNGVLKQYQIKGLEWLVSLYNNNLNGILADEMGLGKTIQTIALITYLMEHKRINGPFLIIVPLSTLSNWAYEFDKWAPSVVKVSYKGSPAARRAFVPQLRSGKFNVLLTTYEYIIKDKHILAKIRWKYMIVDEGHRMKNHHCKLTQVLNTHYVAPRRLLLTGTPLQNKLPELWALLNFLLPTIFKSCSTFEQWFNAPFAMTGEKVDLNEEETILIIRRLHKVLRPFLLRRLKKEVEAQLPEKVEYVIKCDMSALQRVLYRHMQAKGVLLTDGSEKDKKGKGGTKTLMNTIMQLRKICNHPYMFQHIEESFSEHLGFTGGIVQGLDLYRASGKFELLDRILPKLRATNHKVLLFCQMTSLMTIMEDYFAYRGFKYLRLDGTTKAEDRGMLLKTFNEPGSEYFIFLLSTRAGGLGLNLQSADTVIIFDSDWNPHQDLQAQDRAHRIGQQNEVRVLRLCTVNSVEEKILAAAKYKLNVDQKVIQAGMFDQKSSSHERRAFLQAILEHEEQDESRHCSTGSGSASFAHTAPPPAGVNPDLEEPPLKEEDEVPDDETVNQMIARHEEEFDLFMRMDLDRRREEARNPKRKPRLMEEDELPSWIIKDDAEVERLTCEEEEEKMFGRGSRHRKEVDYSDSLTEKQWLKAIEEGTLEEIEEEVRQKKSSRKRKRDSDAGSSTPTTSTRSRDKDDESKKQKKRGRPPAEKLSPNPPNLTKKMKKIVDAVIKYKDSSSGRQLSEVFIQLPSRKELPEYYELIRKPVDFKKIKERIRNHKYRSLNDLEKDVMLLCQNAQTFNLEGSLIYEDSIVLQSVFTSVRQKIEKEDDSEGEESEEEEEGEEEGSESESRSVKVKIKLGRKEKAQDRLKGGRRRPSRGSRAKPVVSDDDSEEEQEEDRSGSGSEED
BRG1-N (N-terminal residues 1–282): residues 1-282 of P51532
UniProt O60563: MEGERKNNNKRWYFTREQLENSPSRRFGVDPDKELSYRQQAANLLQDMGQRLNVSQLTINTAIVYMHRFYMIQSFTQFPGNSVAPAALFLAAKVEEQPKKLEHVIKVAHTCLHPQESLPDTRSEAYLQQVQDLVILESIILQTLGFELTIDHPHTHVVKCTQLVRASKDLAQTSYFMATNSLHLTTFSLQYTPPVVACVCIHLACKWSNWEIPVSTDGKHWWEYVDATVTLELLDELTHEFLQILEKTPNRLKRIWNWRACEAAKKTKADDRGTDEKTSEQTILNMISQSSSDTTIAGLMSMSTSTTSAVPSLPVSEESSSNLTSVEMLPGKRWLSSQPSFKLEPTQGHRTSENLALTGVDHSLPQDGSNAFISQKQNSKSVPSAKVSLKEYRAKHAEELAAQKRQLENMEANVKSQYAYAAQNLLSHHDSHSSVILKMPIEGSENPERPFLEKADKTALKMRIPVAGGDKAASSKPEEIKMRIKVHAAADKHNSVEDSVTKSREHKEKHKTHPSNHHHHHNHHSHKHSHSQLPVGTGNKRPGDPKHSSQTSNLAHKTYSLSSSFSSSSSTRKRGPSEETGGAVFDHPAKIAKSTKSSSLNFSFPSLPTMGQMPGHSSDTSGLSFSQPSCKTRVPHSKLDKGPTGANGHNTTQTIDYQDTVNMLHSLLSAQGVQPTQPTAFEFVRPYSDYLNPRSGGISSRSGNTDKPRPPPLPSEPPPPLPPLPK

Assays:
[1] = target: GST-Tat, wild-type, unacetylated (HIV-1) (UniProt P04608); test: pull-down; only the target purified
[2] = target: acetylated GST-Tat, wild-type (incubated with p300 and acetyl-CoA) (HIV-1) (UniProt P04608); test: pull-down; only the target purified
[3] = target: BRG1-N (N-terminal residues 1–282) (UniProt P51532); test: pull-down; only the target purified
[4] = target: GST-Tat, wild-type, unacetylated (HIV-1) (UniProt P04608); test: pull-down; both purified

## 35S-BRG1, wild-type (from UniProt P51532 1-1647)
[1]
  binding: binds
[2]
  binding: binds

## 35S-Tat, unacetylated (from UniProt P04608 1-86)
[3]
  binding: binds

## cyclin T1/cdk9 complex, purified (from UniProt O60563 1-726; P50750 1-372)
[4]
  binding: binds

## 35S-Tat, acetylated (from UniProt P04608 1-86)
[3]
  binding: binds
